# Data published in ChEMBL document CHEMBL2218924, “A broad activity screen in support of a chemogenomic map for kinase signalling research and drug discovery” (Biochem J, 2013).
# Amino acid sequences for entries named in this document (tags omitted). A change or cut given only in a name is not applied to a line headed by its entry.
# UniProt P00519, whole entry: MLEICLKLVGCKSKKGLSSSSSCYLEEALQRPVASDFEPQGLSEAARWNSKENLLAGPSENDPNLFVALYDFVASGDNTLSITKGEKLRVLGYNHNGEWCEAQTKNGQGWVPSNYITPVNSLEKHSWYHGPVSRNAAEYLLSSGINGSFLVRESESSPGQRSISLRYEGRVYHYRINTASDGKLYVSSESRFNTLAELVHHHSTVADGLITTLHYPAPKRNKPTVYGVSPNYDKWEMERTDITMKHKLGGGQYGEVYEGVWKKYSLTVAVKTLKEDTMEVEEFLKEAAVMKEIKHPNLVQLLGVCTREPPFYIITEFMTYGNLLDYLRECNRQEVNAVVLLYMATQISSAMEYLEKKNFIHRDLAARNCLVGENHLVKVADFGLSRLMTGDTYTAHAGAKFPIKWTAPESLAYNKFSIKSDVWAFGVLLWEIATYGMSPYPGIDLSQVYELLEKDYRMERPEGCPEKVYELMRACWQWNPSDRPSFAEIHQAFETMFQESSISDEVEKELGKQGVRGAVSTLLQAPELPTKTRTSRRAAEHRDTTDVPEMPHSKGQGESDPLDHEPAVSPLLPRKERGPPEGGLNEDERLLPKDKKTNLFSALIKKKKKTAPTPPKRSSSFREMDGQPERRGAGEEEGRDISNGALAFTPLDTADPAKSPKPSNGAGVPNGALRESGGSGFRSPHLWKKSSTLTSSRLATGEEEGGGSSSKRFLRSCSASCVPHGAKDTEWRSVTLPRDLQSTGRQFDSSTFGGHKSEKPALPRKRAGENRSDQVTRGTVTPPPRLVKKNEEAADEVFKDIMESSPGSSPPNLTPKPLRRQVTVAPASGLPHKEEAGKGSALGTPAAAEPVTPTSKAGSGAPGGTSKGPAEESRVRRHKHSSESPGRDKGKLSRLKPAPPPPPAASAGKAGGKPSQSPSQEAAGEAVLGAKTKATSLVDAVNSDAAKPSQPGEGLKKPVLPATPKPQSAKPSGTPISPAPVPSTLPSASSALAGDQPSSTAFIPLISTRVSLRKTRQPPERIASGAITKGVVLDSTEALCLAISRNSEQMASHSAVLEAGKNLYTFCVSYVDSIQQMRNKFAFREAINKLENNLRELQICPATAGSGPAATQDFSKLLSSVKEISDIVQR
# UniProt O14965: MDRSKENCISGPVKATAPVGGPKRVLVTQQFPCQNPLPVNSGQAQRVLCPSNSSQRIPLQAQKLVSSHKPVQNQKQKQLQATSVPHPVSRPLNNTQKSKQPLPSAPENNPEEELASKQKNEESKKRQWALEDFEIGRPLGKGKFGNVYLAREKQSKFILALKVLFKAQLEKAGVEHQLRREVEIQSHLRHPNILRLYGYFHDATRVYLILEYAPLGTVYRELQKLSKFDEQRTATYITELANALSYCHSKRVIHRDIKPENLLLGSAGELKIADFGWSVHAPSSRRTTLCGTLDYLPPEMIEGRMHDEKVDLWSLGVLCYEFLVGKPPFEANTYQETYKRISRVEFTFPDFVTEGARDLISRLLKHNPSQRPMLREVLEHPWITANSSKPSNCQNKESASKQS
# UniProt Q96GD4, whole entry: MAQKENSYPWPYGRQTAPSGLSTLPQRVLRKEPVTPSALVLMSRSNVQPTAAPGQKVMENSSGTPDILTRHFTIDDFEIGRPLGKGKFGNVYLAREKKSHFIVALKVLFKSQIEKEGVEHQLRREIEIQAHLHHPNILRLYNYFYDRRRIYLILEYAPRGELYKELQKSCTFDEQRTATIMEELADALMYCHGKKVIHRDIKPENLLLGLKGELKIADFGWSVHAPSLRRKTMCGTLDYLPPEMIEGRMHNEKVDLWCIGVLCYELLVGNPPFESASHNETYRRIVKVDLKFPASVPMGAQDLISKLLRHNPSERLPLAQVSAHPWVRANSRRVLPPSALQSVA
# UniProt P51451: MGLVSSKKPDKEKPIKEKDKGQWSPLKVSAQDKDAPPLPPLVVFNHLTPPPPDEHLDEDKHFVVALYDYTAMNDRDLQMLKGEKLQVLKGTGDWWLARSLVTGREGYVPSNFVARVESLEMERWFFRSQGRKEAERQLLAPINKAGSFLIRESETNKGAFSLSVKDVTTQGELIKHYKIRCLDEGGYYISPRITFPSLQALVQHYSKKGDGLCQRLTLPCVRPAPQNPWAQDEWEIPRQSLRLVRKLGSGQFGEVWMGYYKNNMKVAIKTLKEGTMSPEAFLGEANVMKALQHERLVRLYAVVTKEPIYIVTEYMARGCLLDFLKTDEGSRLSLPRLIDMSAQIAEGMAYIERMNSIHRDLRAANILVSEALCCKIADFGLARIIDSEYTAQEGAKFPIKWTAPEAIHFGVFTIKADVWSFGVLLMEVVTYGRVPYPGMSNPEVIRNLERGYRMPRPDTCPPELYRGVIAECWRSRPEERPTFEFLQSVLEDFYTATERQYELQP
# UniProt Q8IWQ3: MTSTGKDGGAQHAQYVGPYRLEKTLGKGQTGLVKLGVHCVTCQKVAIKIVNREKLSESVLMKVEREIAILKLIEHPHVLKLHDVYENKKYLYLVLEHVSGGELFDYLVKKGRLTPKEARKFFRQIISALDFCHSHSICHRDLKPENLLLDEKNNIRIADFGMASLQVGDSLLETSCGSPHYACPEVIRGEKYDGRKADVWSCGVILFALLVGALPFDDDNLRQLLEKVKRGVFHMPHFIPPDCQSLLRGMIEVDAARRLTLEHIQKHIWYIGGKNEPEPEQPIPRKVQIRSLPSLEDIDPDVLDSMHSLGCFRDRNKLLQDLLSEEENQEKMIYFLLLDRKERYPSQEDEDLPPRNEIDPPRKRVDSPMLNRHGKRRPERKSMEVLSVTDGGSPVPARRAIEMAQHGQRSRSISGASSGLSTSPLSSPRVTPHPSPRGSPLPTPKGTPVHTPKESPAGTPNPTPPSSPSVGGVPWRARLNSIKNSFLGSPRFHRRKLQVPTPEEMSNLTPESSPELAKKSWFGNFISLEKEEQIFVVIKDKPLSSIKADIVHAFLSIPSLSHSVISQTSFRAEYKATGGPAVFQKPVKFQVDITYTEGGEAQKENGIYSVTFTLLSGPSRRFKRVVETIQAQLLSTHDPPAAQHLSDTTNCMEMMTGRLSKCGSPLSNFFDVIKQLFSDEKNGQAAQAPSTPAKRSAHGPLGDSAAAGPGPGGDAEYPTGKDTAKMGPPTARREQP
# UniProt P14635, whole entry, looked up: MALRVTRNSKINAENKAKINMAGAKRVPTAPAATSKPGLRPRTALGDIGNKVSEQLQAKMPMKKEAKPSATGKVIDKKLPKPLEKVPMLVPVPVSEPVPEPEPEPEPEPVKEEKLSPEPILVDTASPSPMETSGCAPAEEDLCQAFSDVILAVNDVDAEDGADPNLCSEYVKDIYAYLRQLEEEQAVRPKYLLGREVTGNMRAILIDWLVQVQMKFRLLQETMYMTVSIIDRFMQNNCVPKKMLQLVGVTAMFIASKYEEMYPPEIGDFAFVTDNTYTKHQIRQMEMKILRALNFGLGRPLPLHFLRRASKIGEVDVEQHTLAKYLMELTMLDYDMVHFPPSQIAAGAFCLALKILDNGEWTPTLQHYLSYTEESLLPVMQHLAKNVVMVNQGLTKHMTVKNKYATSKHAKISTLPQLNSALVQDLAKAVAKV
# UniProt P78396: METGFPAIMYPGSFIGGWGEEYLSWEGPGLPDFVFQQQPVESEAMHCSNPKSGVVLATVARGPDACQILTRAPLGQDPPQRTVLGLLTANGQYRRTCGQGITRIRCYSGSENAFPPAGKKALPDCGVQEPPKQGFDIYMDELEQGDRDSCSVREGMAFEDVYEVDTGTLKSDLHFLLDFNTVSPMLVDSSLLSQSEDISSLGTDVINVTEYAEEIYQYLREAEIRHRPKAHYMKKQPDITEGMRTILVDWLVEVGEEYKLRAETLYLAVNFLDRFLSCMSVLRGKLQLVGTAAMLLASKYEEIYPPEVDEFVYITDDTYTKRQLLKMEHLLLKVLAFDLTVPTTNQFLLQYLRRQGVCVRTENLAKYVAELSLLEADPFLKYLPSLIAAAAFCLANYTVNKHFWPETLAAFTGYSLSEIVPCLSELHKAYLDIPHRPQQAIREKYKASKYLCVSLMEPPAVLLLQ
# UniProt P24864, whole entry, looked up: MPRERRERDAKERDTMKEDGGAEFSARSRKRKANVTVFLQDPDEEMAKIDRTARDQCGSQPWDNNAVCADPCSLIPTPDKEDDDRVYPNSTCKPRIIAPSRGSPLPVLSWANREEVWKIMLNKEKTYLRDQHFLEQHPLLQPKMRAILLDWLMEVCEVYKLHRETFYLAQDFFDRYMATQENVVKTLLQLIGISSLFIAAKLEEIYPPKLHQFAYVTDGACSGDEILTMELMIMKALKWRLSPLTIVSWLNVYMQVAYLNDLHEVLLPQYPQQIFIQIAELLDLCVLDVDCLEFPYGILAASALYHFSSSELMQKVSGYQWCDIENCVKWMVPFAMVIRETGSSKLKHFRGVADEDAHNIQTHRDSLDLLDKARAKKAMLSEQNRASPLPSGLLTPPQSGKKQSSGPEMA
# UniProt O96020, whole entry, looked up: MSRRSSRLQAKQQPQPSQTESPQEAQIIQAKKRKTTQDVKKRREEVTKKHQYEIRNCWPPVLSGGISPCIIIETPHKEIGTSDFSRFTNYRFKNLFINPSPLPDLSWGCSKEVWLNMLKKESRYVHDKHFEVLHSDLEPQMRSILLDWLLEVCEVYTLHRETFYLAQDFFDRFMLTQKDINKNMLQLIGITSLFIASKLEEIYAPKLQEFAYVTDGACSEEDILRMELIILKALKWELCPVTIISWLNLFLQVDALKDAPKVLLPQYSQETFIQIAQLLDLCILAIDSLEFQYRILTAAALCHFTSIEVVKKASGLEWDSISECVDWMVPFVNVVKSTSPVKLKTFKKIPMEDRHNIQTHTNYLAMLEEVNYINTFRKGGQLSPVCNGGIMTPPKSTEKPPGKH
# UniProt Q15078: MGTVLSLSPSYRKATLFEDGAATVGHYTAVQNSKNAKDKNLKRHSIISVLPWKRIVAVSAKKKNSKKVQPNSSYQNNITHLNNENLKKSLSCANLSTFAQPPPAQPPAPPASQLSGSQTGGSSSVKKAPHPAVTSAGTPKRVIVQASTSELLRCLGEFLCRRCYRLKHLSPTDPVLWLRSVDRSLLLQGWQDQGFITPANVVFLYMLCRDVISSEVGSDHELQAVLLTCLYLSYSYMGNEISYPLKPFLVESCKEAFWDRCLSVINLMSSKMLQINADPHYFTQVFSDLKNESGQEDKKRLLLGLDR
# UniProt Q00534: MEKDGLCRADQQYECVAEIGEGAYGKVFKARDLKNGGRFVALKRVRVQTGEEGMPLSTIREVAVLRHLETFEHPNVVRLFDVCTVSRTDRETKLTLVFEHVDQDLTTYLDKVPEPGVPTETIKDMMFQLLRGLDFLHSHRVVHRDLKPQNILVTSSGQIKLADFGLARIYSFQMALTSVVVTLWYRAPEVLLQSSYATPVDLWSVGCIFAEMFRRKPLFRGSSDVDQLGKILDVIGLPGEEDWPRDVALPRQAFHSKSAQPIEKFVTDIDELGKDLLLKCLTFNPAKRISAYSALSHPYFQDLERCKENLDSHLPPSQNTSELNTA
# UniProt P48730: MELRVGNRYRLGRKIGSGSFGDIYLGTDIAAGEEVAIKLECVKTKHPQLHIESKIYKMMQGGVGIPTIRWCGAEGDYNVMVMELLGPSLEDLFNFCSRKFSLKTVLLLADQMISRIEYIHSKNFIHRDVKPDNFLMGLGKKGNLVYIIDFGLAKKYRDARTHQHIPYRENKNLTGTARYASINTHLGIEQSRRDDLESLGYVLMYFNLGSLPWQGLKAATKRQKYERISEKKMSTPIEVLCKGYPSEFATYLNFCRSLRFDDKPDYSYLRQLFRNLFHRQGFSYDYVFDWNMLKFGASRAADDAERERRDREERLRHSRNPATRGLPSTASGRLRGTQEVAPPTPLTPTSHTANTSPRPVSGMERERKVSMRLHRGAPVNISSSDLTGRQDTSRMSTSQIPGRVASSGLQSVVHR
# UniProt P67870, whole entry, looked up: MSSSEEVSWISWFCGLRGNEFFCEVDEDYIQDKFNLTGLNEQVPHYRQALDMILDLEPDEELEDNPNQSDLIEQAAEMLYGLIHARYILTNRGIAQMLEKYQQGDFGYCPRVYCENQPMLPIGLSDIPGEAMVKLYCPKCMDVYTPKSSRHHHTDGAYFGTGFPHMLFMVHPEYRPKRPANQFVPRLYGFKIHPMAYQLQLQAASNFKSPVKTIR
# UniProt P19784, whole entry, looked up: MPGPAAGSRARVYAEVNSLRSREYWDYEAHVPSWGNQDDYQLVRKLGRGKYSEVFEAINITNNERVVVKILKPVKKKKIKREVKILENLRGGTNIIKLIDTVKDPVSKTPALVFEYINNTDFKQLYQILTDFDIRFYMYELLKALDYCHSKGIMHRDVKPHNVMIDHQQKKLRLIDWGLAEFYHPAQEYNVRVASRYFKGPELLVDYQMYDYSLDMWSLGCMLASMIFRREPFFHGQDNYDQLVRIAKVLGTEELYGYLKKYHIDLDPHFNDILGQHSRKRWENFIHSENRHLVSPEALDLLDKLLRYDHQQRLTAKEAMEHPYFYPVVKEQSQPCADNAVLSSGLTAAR
# For some assays here: The strong results were mostly taken out for another list; the other results follow. No rule for the calls is given here. The list shows a part of the results, in another mix than the full data.
# What was measured:
# [1] = molecular target: Protein kinase C zeta type (Homo sapiens) (UniProt Q05513); settings: at 1 µM
# [2] = molecular target: Mitogen-activated protein kinase kinase kinase 5 (Homo sapiens) (UniProt Q99683); settings: at 10 µM
# [3] = molecular target: Tyrosine-protein kinase ABL1 (Homo sapiens) (UniProt P00519); settings: at 1 µM
# [4] = molecular target: Tyrosine-protein kinase ABL1 (Homo sapiens) (UniProt P00519); settings: at 10 µM
# [5] = molecular target: Tyrosine-protein kinase ABL2 (Homo sapiens) (UniProt P42684); settings: at 1 µM
# [6] = molecular target: Tyrosine-protein kinase ABL2 (Homo sapiens) (UniProt P42684); settings: at 10 µM
# [7] = molecular target: Aurora kinase A (Homo sapiens) (UniProt O14965); settings: at 1 µM
# [8] = molecular target: Aurora kinase A (Homo sapiens) (UniProt O14965); settings: at 10 µM
# [9] = molecular target: Aurora kinase B (Homo sapiens) (UniProt Q96GD4); settings: at 1 µM
# [10] = molecular target: Aurora kinase B (Homo sapiens) (UniProt Q96GD4); settings: at 10 µM
# [11] = molecular target: Aurora kinase C (Homo sapiens) (UniProt Q9UQB9); settings: at 1 µM
# [12] = molecular target: Aurora kinase C (Homo sapiens) (UniProt Q9UQB9); settings: at 10 µM
# [13] = molecular target: Tyrosine-protein kinase receptor UFO (Homo sapiens) (UniProt P30530); settings: at 1 µM
# [14] = molecular target: Tyrosine-protein kinase receptor UFO (Homo sapiens) (UniProt P30530); settings: at 10 µM
# [15] = molecular target: Protein-tyrosine kinase 6 (Homo sapiens) (UniProt Q13882); settings: at 1 µM
# [16] = molecular target: Protein-tyrosine kinase 6 (Homo sapiens) (UniProt Q13882); settings: at 10 µM
# [17] = molecular target: Tyrosine-protein kinase BTK (Homo sapiens) (UniProt Q06187); settings: at 1 µM
# [18] = molecular target: Tyrosine-protein kinase BTK (Homo sapiens) (UniProt Q06187); settings: at 10 µM
# [19] = molecular target: Tyrosine-protein kinase Blk (Homo sapiens) (UniProt P51451); settings: at 1 µM
# [20] = molecular target: Tyrosine-protein kinase Blk (Homo sapiens) (UniProt P51451); settings: at 10 µM
# [21] = molecular target: Serine/threonine-protein kinase BRSK1 (Homo sapiens) (UniProt Q8TDC3); settings: at 1 µM
# [22] = molecular target: Serine/threonine-protein kinase BRSK1 (Homo sapiens) (UniProt Q8TDC3); settings: at 10 µM
# [23] = molecular target: Serine/threonine-protein kinase BRSK2 (Homo sapiens) (UniProt Q8IWQ3); settings: at 1 µM
# [24] = molecular target: Serine/threonine-protein kinase BRSK2 (Homo sapiens) (UniProt Q8IWQ3); settings: at 10 µM
# [25] = molecular target: T1, Cyclin-dependent kinase 1/cyclin B1 (Homo sapiens) (UniProt P06493+P14635); settings: at 1 µM
# [26] = molecular target: T1, Cyclin-dependent kinase 1/cyclin B1 (Homo sapiens); settings: at 10 µM
# [27] = molecular target: T2, Cyclin-dependent kinase 2/cyclin A (Homo sapiens) (UniProt P24941+P20248+P78396); settings: at 1 µM
# [28] = molecular target: T2, Cyclin-dependent kinase 2/cyclin A (Homo sapiens); settings: at 10 µM
# [29] = molecular target: T3, Cyclin-dependent kinase 2/cyclin E (Homo sapiens) (UniProt P24864+P24941+O96020); settings: at 1 µM
# [30] = molecular target: T3, Cyclin-dependent kinase 2/cyclin E (Homo sapiens); settings: at 10 µM
# [31] = molecular target: T4, CDK3/cyclin E (Homo sapiens) (UniProt P24864+O96020+Q00526); settings: at 1 µM
# [32] = molecular target: T4, CDK3/cyclin E (Homo sapiens); settings: at 10 µM
# [33] = molecular target: T5, Cyclin-dependent kinase 5/CDK5 activator 1 (Homo sapiens) (UniProt Q00535+Q15078); settings: at 1 µM
# [34] = molecular target: T5, Cyclin-dependent kinase 5/CDK5 activator 1 (Homo sapiens); settings: at 10 µM
# [35] = molecular target: T5, Cyclin-dependent kinase 5/CDK5 activator 1 (Homo sapiens); settings: at 1 µM; remark: listed apart in the source
# [36] = molecular target: T5, Cyclin-dependent kinase 5/CDK5 activator 1 (Homo sapiens); settings: at 10 µM; remark: listed apart in the source
# [37] = molecular target: T6, CDK6/cyclin D3 (Homo sapiens) (UniProt P30281+Q00534); settings: at 1 µM
# [38] = molecular target: T6, CDK6/cyclin D3 (Homo sapiens); settings: at 10 µM
# [39] = molecular target: T7, Cyclin-dependent kinase 7/ cyclin H (Homo sapiens) (UniProt P51946+P50613); settings: at 1 µM
# [40] = molecular target: T7, Cyclin-dependent kinase 7/ cyclin H (Homo sapiens); settings: at 10 µM
# [41] = molecular target: T8, CDK9/cyclin T1 (Homo sapiens) (UniProt O60563+P50750); settings: at 1 µM
# [42] = molecular target: T8, CDK9/cyclin T1 (Homo sapiens); settings: at 10 µM
# [43] = molecular target: Serine/threonine-protein kinase Chk1 (Homo sapiens) (UniProt O14757); settings: at 1 µM
# [44] = molecular target: Serine/threonine-protein kinase Chk1 (Homo sapiens) (UniProt O14757); settings: at 10 µM
# [45] = molecular target: Serine/threonine-protein kinase Chk2 (Homo sapiens) (UniProt O96017); settings: at 1 µM
# [46] = molecular target: Serine/threonine-protein kinase Chk2 (Homo sapiens) (UniProt O96017); settings: at 10 µM
# [47] = molecular target: Casein kinase I isoform gamma-1 (Homo sapiens) (UniProt Q9HCP0); settings: at 1 µM
# [48] = molecular target: Casein kinase I isoform gamma-1 (Homo sapiens) (UniProt Q9HCP0); settings: at 10 µM
# [49] = molecular target: Casein kinase I isoform delta (Homo sapiens) (UniProt P48730); settings: at 1 µM
# [50] = molecular target: Casein kinase I isoform delta (Homo sapiens) (UniProt P48730); settings: at 10 µM
# [51] = molecular target: T9, Casein kinase II (Homo sapiens) (UniProt P67870+P68400+P19784); settings: at 1 µM
# [52] = molecular target: T9, Casein kinase II (Homo sapiens); settings: at 10 µM
# [53] = molecular target: Casein kinase II subunit alpha' (Homo sapiens) (UniProt P19784); settings: at 1 µM
# [54] = molecular target: Casein kinase II subunit alpha' (Homo sapiens) (UniProt P19784); settings: at 10 µM
# [55] = molecular target: Dual specificity protein kinase CLK2 (Homo sapiens) (UniProt P49760); settings: at 1 µM
# [56] = molecular target: Dual specificity protein kinase CLK2 (Homo sapiens) (UniProt P49760); settings: at 10 µM
smiles,measurement,setting,value
O=C1Nc2ccc(-c3cccnc3)cc2/C1=C\c1ccc[nH]1,residual activity,[1],inactive: 91%
same,residual activity,[2],20%
same,residual activity,[3],39%
same,residual activity,[4],3%
same,residual activity,[5],59%
same,residual activity,[6],11%
same,residual activity,[7],4%
same,residual activity,[8],0%
same,residual activity,[9],4%
same,residual activity,[10],4%
same,residual activity,[11],53%
same,residual activity,[12],6%
same,residual activity,[13],8%
same,residual activity,[14],-1%
same,residual activity,[15],85%
same,residual activity,[16],40%
same,residual activity,[17],90%
same,residual activity,[18],54%
same,residual activity,[19],12%
same,residual activity,[20],2%
same,residual activity,[21],1%
same,residual activity,[22],2%
same,residual activity,[23],10%
same,residual activity,[24],1%
same,residual activity,[25],1%
same,residual activity,[26],0%
same,residual activity,[27],1%
same,residual activity,[28],0%
same,residual activity,[29],6%
same,residual activity,[30],1%
same,residual activity,[31],10%
same,residual activity,[32],1%
same,residual activity,[33],1%
same,residual activity,[34],0%
same,residual activity,[35],1%
same,residual activity,[36],0%
same,residual activity,[37],22%
same,residual activity,[38],6%
same,residual activity,[39],41%
same,residual activity,[40],9%
same,residual activity,[41],12%
same,residual activity,[42],3%
same,residual activity,[43],10%
same,residual activity,[44],3%
same,residual activity,[45],24%
same,residual activity,[46],4%
same,residual activity,[47],90%
same,residual activity,[48],47%
same,residual activity,[49],73%
same,residual activity,[50],26%
same,residual activity,[51],69%
same,residual activity,[52],79%
same,residual activity,[53],105%
same,residual activity,[54],36%
same,residual activity,[55],1%
same,residual activity,[56],1%
